This is an account of results in the supplement of paper PMC6411743.

Protein sequences, listed by entry. Tags and fused reporters are not part of them. Lines headed by an entry give the natural chain unless they say otherwise; changes in a name come on top.
UniProt Q9UHB9: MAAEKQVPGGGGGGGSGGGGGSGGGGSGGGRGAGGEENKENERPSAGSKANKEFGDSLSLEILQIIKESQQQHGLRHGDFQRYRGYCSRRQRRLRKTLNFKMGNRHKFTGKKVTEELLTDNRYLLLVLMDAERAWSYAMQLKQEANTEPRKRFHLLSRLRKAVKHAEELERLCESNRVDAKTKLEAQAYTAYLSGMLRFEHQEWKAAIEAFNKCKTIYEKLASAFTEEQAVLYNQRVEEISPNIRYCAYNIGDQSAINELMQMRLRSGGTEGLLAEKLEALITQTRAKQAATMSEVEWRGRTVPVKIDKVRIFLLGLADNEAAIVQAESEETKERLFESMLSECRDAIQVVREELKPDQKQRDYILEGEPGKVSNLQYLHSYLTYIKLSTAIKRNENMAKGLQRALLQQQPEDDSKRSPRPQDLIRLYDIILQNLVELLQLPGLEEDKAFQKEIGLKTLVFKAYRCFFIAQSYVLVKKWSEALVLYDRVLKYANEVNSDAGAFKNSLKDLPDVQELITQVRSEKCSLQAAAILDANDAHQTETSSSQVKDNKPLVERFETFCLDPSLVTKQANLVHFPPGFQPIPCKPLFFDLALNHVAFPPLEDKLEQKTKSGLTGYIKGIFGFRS
UniProt Q9UPY8, whole entry: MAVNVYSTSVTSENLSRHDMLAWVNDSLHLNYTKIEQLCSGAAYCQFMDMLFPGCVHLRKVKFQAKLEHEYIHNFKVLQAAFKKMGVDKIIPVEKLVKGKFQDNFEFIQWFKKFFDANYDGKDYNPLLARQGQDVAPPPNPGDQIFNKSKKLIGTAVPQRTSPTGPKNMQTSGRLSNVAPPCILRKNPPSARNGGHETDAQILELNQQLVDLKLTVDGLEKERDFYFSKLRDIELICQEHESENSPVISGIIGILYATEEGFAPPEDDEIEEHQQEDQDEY
UniProt Q9UQ90: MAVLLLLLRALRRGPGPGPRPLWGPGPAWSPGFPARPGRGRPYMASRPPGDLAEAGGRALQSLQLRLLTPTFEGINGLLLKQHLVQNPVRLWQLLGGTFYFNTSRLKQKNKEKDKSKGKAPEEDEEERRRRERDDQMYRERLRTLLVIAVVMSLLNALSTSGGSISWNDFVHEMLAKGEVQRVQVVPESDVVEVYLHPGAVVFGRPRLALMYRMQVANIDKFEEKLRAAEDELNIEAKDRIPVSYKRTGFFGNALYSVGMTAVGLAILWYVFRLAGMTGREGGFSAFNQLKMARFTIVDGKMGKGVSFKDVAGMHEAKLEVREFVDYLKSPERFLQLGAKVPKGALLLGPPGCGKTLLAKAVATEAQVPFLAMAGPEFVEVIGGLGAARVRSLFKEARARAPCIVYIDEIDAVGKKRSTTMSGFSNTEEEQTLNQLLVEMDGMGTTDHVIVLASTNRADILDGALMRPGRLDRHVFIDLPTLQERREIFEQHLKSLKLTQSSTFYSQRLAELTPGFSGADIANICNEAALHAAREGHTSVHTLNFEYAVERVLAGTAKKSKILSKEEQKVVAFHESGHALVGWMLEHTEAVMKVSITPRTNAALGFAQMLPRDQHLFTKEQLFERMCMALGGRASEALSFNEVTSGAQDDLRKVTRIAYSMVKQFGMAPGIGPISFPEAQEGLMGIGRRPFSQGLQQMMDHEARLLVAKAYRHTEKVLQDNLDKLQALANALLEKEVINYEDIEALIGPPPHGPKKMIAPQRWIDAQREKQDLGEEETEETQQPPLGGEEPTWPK
UniProt Q9UJA5: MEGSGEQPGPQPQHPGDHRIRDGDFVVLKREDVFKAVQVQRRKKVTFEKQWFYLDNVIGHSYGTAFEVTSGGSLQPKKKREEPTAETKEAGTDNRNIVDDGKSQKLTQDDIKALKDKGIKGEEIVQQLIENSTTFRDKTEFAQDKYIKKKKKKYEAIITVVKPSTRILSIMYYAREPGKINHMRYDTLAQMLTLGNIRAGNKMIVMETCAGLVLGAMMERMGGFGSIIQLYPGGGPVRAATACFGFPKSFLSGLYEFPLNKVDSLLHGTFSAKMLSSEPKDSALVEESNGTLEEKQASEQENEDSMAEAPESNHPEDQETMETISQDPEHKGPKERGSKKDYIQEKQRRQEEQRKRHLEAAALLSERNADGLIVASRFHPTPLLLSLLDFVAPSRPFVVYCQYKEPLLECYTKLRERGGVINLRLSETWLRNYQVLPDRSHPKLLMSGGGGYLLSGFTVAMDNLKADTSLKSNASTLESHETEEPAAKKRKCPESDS
UniProt Q9UHA4, whole entry: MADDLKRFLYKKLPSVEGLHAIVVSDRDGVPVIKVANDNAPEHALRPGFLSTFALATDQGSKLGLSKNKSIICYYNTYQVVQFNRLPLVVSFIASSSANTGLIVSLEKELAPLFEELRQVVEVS
UniProt Q9UH92: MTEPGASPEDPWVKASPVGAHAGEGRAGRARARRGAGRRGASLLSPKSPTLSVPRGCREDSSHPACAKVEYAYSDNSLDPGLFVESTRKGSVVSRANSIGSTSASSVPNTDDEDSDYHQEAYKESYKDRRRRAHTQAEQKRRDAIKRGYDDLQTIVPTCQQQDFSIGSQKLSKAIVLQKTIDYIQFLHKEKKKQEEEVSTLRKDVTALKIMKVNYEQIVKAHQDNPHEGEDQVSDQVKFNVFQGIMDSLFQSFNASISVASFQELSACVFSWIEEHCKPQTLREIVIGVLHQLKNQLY
UniProt Q9UNZ2: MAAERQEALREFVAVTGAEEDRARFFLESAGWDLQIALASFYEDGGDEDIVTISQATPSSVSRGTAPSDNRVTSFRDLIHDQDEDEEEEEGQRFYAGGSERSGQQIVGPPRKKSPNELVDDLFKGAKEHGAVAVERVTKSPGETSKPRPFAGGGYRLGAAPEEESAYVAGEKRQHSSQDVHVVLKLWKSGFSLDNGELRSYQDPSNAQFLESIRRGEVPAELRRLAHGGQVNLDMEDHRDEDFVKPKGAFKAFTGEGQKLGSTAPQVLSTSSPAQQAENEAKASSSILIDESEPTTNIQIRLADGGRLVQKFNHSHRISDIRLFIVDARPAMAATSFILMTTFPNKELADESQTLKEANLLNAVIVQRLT
UniProt Q9Y2X3: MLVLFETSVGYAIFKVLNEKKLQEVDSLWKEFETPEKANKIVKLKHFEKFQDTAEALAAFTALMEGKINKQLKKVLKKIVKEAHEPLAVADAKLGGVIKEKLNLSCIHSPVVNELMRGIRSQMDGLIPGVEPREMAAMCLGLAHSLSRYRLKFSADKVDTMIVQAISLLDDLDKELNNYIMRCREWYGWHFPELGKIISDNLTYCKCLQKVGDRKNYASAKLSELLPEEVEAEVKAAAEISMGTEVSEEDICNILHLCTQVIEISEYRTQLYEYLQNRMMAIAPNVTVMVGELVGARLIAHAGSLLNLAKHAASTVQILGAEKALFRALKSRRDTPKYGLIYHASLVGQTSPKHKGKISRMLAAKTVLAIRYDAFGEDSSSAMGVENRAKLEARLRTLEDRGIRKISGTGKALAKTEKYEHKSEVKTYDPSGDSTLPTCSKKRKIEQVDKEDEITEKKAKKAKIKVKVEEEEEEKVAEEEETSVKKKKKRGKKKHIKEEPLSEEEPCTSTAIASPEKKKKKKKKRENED
UniProt Q9Y224: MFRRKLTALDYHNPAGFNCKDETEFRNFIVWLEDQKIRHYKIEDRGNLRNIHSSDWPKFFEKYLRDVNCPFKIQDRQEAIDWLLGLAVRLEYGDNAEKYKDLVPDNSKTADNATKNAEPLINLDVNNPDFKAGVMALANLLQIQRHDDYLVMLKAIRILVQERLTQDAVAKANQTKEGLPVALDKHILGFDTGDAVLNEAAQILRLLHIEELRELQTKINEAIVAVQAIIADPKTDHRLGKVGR
UniProt Q9UKA4: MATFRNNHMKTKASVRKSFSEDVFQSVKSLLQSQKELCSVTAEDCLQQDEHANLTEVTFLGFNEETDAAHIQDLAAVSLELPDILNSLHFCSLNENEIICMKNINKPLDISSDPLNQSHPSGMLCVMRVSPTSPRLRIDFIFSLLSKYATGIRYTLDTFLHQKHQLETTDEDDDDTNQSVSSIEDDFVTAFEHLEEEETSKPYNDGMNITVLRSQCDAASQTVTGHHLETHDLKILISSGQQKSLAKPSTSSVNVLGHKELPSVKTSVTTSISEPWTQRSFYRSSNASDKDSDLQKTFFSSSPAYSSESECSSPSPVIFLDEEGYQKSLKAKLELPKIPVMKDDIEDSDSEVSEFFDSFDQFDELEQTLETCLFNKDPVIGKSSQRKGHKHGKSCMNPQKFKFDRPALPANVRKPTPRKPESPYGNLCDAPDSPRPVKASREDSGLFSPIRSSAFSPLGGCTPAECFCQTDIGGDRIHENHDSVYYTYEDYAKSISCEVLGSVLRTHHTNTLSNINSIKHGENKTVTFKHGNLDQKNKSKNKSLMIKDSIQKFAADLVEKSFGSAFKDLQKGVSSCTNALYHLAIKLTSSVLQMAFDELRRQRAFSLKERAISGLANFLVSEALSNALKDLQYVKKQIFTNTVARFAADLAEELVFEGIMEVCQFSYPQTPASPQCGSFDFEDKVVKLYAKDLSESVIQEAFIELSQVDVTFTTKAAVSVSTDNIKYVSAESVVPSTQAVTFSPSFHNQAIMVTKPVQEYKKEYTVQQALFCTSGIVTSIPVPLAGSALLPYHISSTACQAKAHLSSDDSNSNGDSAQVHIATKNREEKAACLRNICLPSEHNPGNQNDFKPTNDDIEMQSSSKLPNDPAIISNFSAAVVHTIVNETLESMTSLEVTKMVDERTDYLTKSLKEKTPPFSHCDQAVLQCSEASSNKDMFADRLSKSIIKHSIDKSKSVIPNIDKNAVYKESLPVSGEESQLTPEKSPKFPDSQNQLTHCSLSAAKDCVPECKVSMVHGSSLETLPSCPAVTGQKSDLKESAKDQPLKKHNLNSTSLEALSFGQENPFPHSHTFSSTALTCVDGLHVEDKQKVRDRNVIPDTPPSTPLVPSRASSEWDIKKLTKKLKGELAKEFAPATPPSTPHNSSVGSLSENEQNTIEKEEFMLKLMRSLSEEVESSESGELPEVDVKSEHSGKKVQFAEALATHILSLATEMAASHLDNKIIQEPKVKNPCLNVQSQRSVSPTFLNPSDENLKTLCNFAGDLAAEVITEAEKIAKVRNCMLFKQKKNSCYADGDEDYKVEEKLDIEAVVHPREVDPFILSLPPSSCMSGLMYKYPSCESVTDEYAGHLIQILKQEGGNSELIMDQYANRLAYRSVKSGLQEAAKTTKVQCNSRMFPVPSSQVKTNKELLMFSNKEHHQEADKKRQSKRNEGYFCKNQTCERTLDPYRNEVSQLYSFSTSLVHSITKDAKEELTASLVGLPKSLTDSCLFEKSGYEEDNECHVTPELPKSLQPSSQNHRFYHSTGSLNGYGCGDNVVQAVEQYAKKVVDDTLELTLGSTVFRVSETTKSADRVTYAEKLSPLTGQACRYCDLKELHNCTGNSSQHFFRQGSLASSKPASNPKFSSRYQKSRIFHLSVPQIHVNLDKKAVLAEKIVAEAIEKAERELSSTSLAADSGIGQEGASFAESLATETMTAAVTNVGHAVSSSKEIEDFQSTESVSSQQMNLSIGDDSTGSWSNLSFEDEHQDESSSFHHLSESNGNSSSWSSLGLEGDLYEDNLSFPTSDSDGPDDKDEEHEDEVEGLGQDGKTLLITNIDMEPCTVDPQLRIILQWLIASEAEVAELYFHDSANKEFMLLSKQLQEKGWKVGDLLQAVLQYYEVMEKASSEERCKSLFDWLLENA
UniProt Q9UNE7: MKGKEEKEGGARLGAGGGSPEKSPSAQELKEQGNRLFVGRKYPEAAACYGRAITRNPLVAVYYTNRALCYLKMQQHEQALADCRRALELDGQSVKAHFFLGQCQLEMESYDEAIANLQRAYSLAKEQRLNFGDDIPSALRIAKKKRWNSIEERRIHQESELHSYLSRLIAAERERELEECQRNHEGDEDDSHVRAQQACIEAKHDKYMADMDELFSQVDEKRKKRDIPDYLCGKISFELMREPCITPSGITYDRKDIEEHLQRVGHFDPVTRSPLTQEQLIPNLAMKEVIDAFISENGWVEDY
UniProt Q9Y230, whole entry: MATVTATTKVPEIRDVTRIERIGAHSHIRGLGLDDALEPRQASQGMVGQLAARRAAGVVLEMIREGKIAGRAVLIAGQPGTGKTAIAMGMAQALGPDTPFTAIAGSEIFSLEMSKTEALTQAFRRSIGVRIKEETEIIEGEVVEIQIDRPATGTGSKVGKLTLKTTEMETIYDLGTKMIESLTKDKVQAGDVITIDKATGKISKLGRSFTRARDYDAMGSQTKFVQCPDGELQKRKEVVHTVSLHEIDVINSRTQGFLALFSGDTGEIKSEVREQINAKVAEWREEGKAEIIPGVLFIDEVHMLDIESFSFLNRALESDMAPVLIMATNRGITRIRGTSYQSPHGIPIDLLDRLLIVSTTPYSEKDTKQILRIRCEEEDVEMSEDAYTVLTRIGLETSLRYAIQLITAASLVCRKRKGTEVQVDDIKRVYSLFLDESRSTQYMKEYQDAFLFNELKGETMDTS

Compound in this test: Nc1ncnc2c1ncn2[C@@H]1O[C@H](COP(=O)(O)OP(=O)(O)NP(=O)(O)O)[C@@H](O)[C@H]1O [adenylyl imidodiphosphate]
Kind of test: NP40-soluble protein abundance relative to vehicle (solubility fold change) (ratio); higher = more soluble protein in presence of AMP-PNP. The method in brief:
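Values are fold changes against the detergent-processed vehicle, based on vsn-normalised intensities. Jurkat crude lysate was treated at eight concentrations from 0.1 to 10 mM (10 min at room temperature, then 3 min at 37 °C), solubilised with 0.8% NP40 and benzonase, ultracentrifuged and analysed by TMT-labelled LC-MS/MS over three independent experiments.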

± gives the standard deviation of the averaged measurements. The entries are a selection whose mix differs from that of the whole data set. Most values lie at the level of the controls, where differences are scatter.

With UniProt Q9UHB9 and related entries, the NP40-soluble protein abundance runs as follows: (concentration: 0.1mM) 1 ± 0.023; (concentration: 0.5mM) 1 ± 0.028.
As to MAPRE3 (UniProt Q9UPY8), the NP40-soluble protein abundance was determined as 0.994 ± 0.041 (concentration: 0.1mM) and 0.994 ± 0.066 (concentration: 0.5mM).
In the case of UBQLN1 (UniProt Q9UMX0), the NP40-soluble protein abundance (concentration: 0.1mM) was 0.999 ± 0.025 and the NP40-soluble protein abundance (concentration: 0.5mM) came to 1.1 ± 0.088.
For SPG7 (UniProt Q9UQ90), in that order: 0.962 ± 0.0085 and 0.94 ± 0.027.
For TRMT6 (UniProt Q9UJA5), the NP40-soluble protein abundance runs as follows: (concentration: 0.1mM) 1.02 ± 0.018; (concentration: 0.5mM) 0.989 ± 0.0043.
On to UniProt Q9UHA4, for which the NP40-soluble protein abundance was 1.08 ± 0.084 (concentration: 0.1mM) and 1.02 ± 0.053 (concentration: 0.5mM).
The corresponding values for UniProt Q9UH92 and related entries are 0.978 ± 0.043 and 1.01 ± 0.025.
With UniProt Q9Y2L9 and related entries, the NP40-soluble protein abundance (concentration: 0.1mM) came out at 1 ± 0.044 and the NP40-soluble protein abundance (concentration: 0.5mM) was determined as 1.01 ± 0.029.
For the target GTF3C4 (UniProt Q9UKN8), the NP40-soluble protein abundance reads like this: (concentration: 0.1mM) 1.01 ± 0.049; (concentration: 0.5mM) 1.01 ± 0.025.
The corresponding values for NSFL1C (UniProt Q9UNZ2) are 0.972 ± 0.04 and 0.958 ± 0.033.
The corresponding values for PLAA (UniProt Q9Y263) are 0.973 ± 0.023 and 0.972 ± 0.014.
As for UBE2J1 (UniProt Q9Y385), the NP40-soluble protein abundance (concentration: 0.1mM) was 0.949 ± 0.059 and the NP40-soluble protein abundance (concentration: 0.5mM) was determined as 0.935 ± 0.019.
For the target UniProt Q9UHP3 and related entries, the NP40-soluble protein abundance (concentration: 0.1mM) is 0.974 ± 0.045 and the NP40-soluble protein abundance (concentration: 0.5mM) was 0.987 ± 0.0029.
Regarding UniProt Q9UMZ2 and related entries, the NP40-soluble protein abundance came out at 0.987 ± 0.026 (concentration: 0.1mM) and 0.988 ± 0.042 (concentration: 0.5mM).
For NOP58 (UniProt Q9Y2X3), in that order: 1.026 ± 0.0046 and 1.1 ± 0.064.
UniProt Q9Y224: the NP40-soluble protein abundance by setting is: (concentration: 0.1mM) 0.949 ± 0.057; (concentration: 0.5mM) 0.99 ± 0.13.
For AKAP11 (UniProt Q9UKA4), in that order: 0.974 ± 0.039 and 0.992 ± 0.041.
The corresponding values for STUB1 (UniProt Q9UNE7) are 0.991 ± 0.026 and 1.02 ± 0.021.
The corresponding values for UniProt Q9UNM6 and related entries are 1.005 ± 0.0047 and 0.949 ± 0.078.
For PLCL2 (UniProt Q9UPR0), the NP40-soluble protein abundance worked out at 1.05 ± 0.034 (concentration: 0.1mM) and 1.03 ± 0.017 (concentration: 0.5mM).
The corresponding values for UniProt Q9Y2X9 and related entries are 0.977 ± 0.039 and 1 ± 0.044.
Consider RUVBL2 (UniProt Q9Y230), for which the NP40-soluble protein abundance came to 1.02 ± 0.035 (concentration: 0.1mM) and 1.04 ± 0.039 (concentration: 0.5mM).
